Assay results from patent US11787764B2, “Heptamethine cyanines for use as fluorescent markers of the biliary and renal systems” (CHILDREN'S NATIONAL MEDICAL CENTER, priority 2018, dated 2023).
Some of these results come from one statement about several compounds together.

Key:
[1] = Quantum yield measurement
[2] = system: Yorkshire pigs; experiment: Laparoscopic biliary imaging in pigs; assay type: in vivo; conditions: 90 μg/kg iv

| Compound | quantum yield [1] | time to visualization of the cystic ducts after intravenous injection [2] [min] |
| --- | --- | --- |
| CN(CCOC1=C(/C=C/C2=[N+](CCCCS(=O)(=O)[O-])c3ccccc3C2(C)C)CCC/C1=C\C=C1\N(CCCCS(=O)(=O)O)c2ccccc2C1(C)C)C(=O)CCCC(=O)O [FNIR-Ar-H_N-BS] | at least 20% |  |
| CC1(C)C(/C=C/C=C/C=C/C=C2\N(CCCCS(=O)(=O)O)c3ccc4ccccc4c3C2(C)C)=[N+](CCCCS(=O)(=O)[O-])c2ccc3ccccc3c21 [ICG, indocyanine green] |  | 5 to 10 |
